Experimental data taken from article PMC5640807.
Results are given in words; binding and its absence hold for the method and conditions named. In cells and extracts the contact can be indirect. Some results given as binding are weak or reduced against the parent protein; the word gives no strength. Where a sequence is shown, tags or fusion partners need not be part of it.

Sequences of proteins named here, by UniProt entry; tags and fusion partners are left off. Residues count along the entry.
UniProt Q69ZK9, residues 15-836: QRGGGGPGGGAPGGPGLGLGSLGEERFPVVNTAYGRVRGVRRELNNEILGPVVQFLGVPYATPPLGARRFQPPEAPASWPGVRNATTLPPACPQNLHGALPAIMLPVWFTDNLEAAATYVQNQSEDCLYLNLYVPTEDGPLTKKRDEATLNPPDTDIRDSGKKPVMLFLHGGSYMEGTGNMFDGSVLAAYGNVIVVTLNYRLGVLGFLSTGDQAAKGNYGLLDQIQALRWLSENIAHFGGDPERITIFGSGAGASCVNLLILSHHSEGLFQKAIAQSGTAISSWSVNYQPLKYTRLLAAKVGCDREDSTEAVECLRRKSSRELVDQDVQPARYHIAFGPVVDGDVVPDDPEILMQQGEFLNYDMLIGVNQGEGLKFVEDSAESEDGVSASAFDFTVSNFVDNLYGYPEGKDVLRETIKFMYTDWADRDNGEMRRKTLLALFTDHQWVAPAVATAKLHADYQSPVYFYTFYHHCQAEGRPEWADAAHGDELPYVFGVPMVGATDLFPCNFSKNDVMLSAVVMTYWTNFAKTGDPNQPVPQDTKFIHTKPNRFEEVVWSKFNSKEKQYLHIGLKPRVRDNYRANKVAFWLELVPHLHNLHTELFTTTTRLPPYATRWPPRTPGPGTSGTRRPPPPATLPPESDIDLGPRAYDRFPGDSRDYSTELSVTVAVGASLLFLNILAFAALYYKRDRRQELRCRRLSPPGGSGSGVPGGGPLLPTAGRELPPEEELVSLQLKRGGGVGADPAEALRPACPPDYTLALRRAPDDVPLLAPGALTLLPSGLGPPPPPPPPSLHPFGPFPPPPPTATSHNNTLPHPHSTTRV

Target: T1, LHFPL4 (Lipoma HMGIC Fusion Partner-Like 4), endogenous in mouse brain (mouse (endogenous in mouse brain)) (UniProt Q5U4E0)
T1 sequence: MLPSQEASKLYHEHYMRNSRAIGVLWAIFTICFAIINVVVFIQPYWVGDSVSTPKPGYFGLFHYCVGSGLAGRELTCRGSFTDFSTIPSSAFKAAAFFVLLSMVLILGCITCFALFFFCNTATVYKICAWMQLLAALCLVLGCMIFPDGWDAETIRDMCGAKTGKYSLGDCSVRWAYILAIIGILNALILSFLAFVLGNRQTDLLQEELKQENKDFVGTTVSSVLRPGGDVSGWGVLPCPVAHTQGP
Assay: co-IP; WT and Lhfpl4-/- mouse brain lysates; immunoprecipitation with an anti-LHFPL4 antibody; western blot

neuroligin2, endogenous in mouse brain (from UniProt Q69ZK9 15-836)
binding: binds
